# Measurements published in US20220153793A1.
# These are yes or no findings as the source states them, for the method shown. Some results given as binding are weak or reduced against the parent protein; the word gives no strength.
# Target: GAL4 DNA binding domain-TOPBP1 (residues 2-1523) (human)
# Assay: yeast two-hybrid (GAL4 AD-CIP2A 1-560 with GAL4 BD-TOPBP1)
substance,measurement,value
GAL4 activation domain-CIP2A (1-560) (from UniProt Q8TCG1 1-560),binding,binds
